Data: the supplement of paper PMC8858631
Some of the results follow. Rule as the data show it: active = 0.5 or less and inactive = the rest. Many values rest on one well or one pass, so single values are uncertain.

system: SK-MEL-28; assay: EEF2K protein level normalised to actin (western blot) after treatment (ratio (EEF2K/Actin)); higher = more EEF2K protein remaining (less EEF2K suppression); details: 5 µM; 24 h

| Structure (SMILES) | EEF2K protein level normalised to actin |
| --- | --- |
| C[C@]12CCC(=O)C(O)=C1CC[C@@H]1[C@@H]2CC[C@]2(C)C(=O)CC[C@@H]12 [Formestane] | inactive: 1 |
| CC[C@@]1(O)C(=O)OCc2c1cc1n(c2=O)Cc2cc3ccccc3nc2-1 [Camptothecin] | active: 0.31 |
| CCC1=C[C@H]2CN3CCc4c([nH]c5ccccc45)[C@](C(=O)OC)(C2)[C@H]13 [Catharanthine] | inactive: 0.68 |
| C[C@]12CC[C@@H]3c4ccc(OC(=O)N(CCCl)CCCl)cc4CC[C@H]3[C@@H]1CC[C@@H]2OP(=O)(O)O [Estramustine phosphate sodium] | inactive: 1.12 |
